Publication PMC8467577, “Infection Responsive Smart Delivery of Antibiotics Using Recombinant Spider Silk Nanospheres” (Pharmaceutics, 2021)
Values after ≈ are worked out from the molar mass of the structure shown.

System: Staphylococcus aureus (ATCC 49230)
Assay: Minimum Inhibitory Concentration, microplate method
Format: cell-based
Settings: ATCC49230, 24 h, read-out: Minimum Inhibitory Concentration (MIC)
Protocol: Antibacterial activity of the nanospheres was tested by calculating the Minimum Inhibitory Concentration (MIC) using the microplate method and Kirby Bauer Zone of Inhibition. Briefly, to determine the MIC, a culture of Staphylococcus aureus (ATCC 49230) was incubated overnight at 37 °C with shaking. The next day, the bacterial cell solution was diluted to 10^7 CFU/mL and different concentrations (ranging from 1 ug/mL to 32 ug/mL) of either the vancomycin-free drug or vancomycin-loaded nanospheres were added to the bacterial solution. Two hundred microliters of this bacterial/vancomycin suspension were seeded in a 96-well plate followed by incubation at 37 °C for 24 h. The optical density of each well was recorded on the microplate reader (Epoch, BioTek, Winooski, VT, USA). Selected concentrations of the particles surrounding the determined MIC were taken and ZOI was conducted by the disc diffusion method. Briefly, 6 mm discs were placed in 96-well plate and 200 µL of drug-loaded particles were added to the wells and the discs were soaked for 24 h. After 24 h, the discs were dried and plated on S. aureus streaked on LB agar plates, and the cleared diameter was measured using digital calipers.

CN[C@H](CC(C)C)C(=O)N[C@H]1C(=O)N[C@@H](CC(N)=O)C(=O)N[C@H]2C(=O)N[C@H]3C(=O)N[C@H](C(=O)N[C@H](C(=O)O)c4cc(O)cc(O)c4-c4cc3ccc4O)[C@H](O)c3ccc(c(Cl)c3)Oc3cc2cc(c3O[C@@H]2O[C@H](CO)[C@@H](O)[C@H](O)[C@H]2O[C@H]2C[C@](C)(N)[C@H](O)[C@H](C)O2)Oc2ccc(cc2Cl)[C@H]1O [vancomycin-free drug, vancomycin]
MIC: 2 µg/mL (≈ 1.38 µM)
